# Laboratory results from PubChem BioAssay AID1345086 (University of Iowa High-Throughput Screening Core (UIHTS), 2018).
# Some of the results follow.
# Test: differential killing of epithelial or mesenchymal cells, primary screen, imaging, PC-3E GFP, TEM4-18 mCherry, co-culture (AID 1345086);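 further: cells exposed to compound for 72 h before imaging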
# Settings: imaging cell counts, at 1 µM
structure (smiles),measurement,setting,value
CN(CCCl)CCCl,normalised cell number,measured here: epithelial PC-3E GFP cell survival,0.43
same,normalised cell number,measured here: mesenchymal TEM4-18 mCherry cell survival,0.47
